Laboratory results published in publication PMC12221285.
No constants are given. Whether binding was seen depends on the method and setting. In cells and extracts the contact can be indirect. A result given as binding can be weak or reduced; the word gives no strength. For some assays here: Where a sequence is shown, tags or fusion partners need not be part of it. Blank lines part the entries; values can stand above or below the molecule they belong to.

How the values were obtained:
Assay in all cases: co-IP; HEK-293T co-transfected for 24-48 h; lysates in NETN buffer (20 mM Tris-Cl pH 8.0, 100 mM NaCl, 0.5 mM EDTA, 0.5% NP-40); anti-FLAG, anti-HA or anti-Myc beads 1 h to 1 h 30 at 4 °C; four washes; western blot
[1] = biological target: T1, USP18 CD (USP catalytic domain only) (human) (UniProt Q9UMW8)
T1 sequence: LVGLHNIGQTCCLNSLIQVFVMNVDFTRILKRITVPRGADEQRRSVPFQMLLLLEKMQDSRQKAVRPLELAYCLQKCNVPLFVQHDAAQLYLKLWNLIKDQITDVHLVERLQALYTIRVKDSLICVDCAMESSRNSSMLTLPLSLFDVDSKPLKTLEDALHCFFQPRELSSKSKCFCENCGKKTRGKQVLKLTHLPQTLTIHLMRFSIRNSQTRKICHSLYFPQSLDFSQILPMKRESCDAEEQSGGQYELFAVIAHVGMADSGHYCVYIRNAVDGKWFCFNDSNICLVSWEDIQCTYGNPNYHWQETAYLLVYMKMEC

HA-USP18B (human) = biological target: T2, HA-USP18B (human) (UniProt Q9UMW8)
T2 sequence: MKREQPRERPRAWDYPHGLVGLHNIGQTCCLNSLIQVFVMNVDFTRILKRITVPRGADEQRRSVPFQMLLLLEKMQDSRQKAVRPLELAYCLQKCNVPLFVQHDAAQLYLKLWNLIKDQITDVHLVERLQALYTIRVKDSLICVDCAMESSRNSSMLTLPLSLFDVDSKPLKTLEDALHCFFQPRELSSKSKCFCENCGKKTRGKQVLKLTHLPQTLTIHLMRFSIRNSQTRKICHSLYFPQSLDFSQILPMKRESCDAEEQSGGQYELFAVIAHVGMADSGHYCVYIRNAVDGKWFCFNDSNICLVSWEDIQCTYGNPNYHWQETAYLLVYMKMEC

HA-USP18A (human) = biological target: T3, HA-USP18A (human) (UniProt Q9UMW8)
T3 sequence: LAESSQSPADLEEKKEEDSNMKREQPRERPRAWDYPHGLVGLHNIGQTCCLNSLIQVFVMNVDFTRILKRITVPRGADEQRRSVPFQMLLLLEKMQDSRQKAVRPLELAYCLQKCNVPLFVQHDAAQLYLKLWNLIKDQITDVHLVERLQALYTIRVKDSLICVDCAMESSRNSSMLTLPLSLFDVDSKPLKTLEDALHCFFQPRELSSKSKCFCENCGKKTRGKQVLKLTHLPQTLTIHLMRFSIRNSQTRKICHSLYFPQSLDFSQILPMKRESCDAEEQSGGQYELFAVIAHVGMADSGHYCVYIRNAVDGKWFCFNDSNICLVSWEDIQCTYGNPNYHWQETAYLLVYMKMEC

Myc-USP41 (human) = biological target: Myc-USP41 (human)

binding [1]: binds
Molecule: USP41 CD (USP catalytic domain only) (human) (domain or fragment)

binding (HA-USP18B (human)): binds
binding (HA-USP18A (human)): binds
Molecule: Myc-USP41 (human)

binding (Myc-USP41 (human)): binds
B1: HA-USP18A (enzyme, UniProt Q9UMW8 16-372)
chain: T3 sequence

binding (Myc-USP41 (human)): binds
B2: HA-USP18B (enzyme, UniProt Q9UMW8 36-372)
chain: T2 sequence
